For this assay, the target named is Biotin-BH4-Bcl-2 (biotinylated peptide corresponding to the BH4 domain of Bcl-2). The experiment in a line: SPR (Biacore 2000), biotinylated peptide on streptavidin chip, GST fusion as analyte.

Results are given in words; binding and its absence hold for the method and conditions named. Some binding calls cover weakened binding; strength is not graded here.

Regarding “GST-Domain3 (GST fusion of IP3R1 Domain 3, a.a. 923-1581) (from UniProt P08515 1-218; P11881 923-1581)”, the binding entry is “binds”.
